Measured values taken from publication PMC11405510 (Scientific Reports, 2024).

Biological target: T1, Ha006a (Helicoverpa armigera, UniProt D5G3E0)
T1 sequence (D5G3E0 25-548): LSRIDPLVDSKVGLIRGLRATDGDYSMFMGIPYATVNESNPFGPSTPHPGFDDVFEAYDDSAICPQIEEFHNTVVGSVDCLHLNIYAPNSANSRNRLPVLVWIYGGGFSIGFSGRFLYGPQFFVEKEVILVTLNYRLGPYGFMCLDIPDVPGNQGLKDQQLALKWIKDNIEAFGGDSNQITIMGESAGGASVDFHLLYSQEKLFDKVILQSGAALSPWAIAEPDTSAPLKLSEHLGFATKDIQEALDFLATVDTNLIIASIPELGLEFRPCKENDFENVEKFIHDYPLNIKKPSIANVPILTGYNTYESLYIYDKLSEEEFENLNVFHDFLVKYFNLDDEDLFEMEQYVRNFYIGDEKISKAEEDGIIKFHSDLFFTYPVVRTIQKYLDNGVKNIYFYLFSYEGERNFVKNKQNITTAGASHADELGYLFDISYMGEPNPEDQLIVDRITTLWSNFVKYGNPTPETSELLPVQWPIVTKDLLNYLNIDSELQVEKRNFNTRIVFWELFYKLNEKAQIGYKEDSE
Test: Differential scanning calorimetry of Ha006a-ligand complexes
Format: binding
Settings: DSC

With `COc1cc2c(cc1OC)C(=O)C(CC1CCN(Cc3ccccc3)CC1)C2` (stereo not drawn) [Donepezil, reference compound] the “Tm1 (°C) ± SE” value (first thermal transition, 50 μM protein, non-two-state fit) was “Tm1 50.12 ± 0.45 °C”, the “ΔH (molar heat enthalpy)” value (first transition (Tm1)) was 117000 kcal/mol and the “ΔHv (van't Hoff enthalpy)” value (first transition (Tm1)) was 47100 kcal/mol. For the same molecule, the “Tm2 (°C) ± SE” value (second thermal transition) was “Tm2 63.42 ± 0.62 °C”, the “ΔH (molar heat enthalpy)” value (second transition (Tm2)) was 208000 kcal/mol and the “ΔHv (van't Hoff enthalpy)” value (second transition (Tm2)) was 35100 kcal/mol. For the same molecule, the “Tm3 (°C) ± SE” value (third thermal transition) was “Tm3 82.46 ± 0.79 °C”, the “ΔH (molar heat enthalpy)” value (third transition (Tm3)) was 124000 kcal/mol and the “ΔHv (van't Hoff enthalpy)” value (third transition (Tm3)) was 35200 kcal/mol.
